In brackets after ≈: the same amount, converted by molar mass.
Key:
[1] = test system: Escherichia coli (E. coli) ATCC 25922; assay: Rapid antibiotic susceptibility test with microwell-patterned hydrogel in 96 well plate, time-lapse imaging; type: cell-based; conditions: ATCC25922, 4 h, hydrogel device, images every hour for four hours, 37° C., read-out: minimum inhibitory concentration (MIC)
Experimental: (§1) FIG. 2 is a schematic diagram illustrating a technique for dissociating cell colonies into cells at the level of individual cells and continuously observing the morphological changes of the isolated single cells by utilizing a hydrogel structure according to one embodiment of the present disclosure. Referring to (a) of FIG. 2, a conventional 96 well plate is prepared, and thereafter, a dried microwell-patterned hydrogel is inserted into each well. Referring next to (b) of FIG. 2, a cell culture medium containing bacterial cells, nutrients and antibiotics is introduced into each well containing the dry microwell-patterned hydrogel. At the initial stage of introduction, the bottom microwells of the microwell-patterned hydrogel are not yet seated on the base of the well and the microwell-patterned hydrogel is slightly floating. Thus, the bacterial cells are free to move in and out of each microwell pattern. […]
(§2) In the case of the Streptomyces atratus (spore-type actinomycetes) cultures, the final cell concentration of the wells was controlled at 7.5×10^7 CFU/mL with tryptic soy broth (TSB, Sparks, MD) and growth was at 28° C. […] After that, 227.5 μL (91% v/v) of Mueller-Hinton broth (MHB, Fluka Analytical), 2.5 μL (1% v/v) of the antibiotics, and 20 μL (8% v/v) of bacterial cells were mixed and growth was monitored at 37° C. […]

[2] = test system: Staphylococcus aureus (S. aureus) ATCC 29213; assay: as above; type: cell-based; conditions: ATCC29213, 4 h, hydrogel device, images every hour for four hours, 37° C., read-out: minimum inhibitory concentration (MIC)
Experimental: as §1, §2

CC1(C)S[C@@H]2[C@H](NC(=O)[C@H](N)c3ccccc3)C(=O)N2[C@H]1C(=O)O [ampicillin]
MIC [1]: 4 µg/mL (≈ 11.4 µM) | MIC [2]: 2 µg/mL (≈ 5.72 µM)
